Taken from: PubChem BioAssay AID1259405 (NCATS, 2018)
The deposit covers about 50,000 reagents; this is a part drawn at random. About 4,000 of them (8%) were called active. 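Mouse siRNA library applied to hamster cells; one well for each siRNA.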 Reagents against one gene are numbered here. Not all columns of the deposit are shown.

Aim: 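Mouse-designed siRNAs used to find CHO productivity engineering targets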 (primary screen)
System: Chinese hamster CHO-K1 ovary cells with stable secreted eGFP expression
Reagent: single siRNA against mouse genes, 0.8 pmol siRNA per well (2 µl of 400 nM stock)
Timing: 3 days
Measurement: 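Per-well intracellular GFP measured by laser scanning cytometry, plus viability from ATP luminescence, each relative to plate median of non-targeting control wells, in %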
Direction: GFP, % of control: higher = more GFP per well, higher productivity
Active means: 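Called active when intracellular GFP, relative to negative control, is at or above 120%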

GFP, % of control, by gene knocked down and reagent
Slc16a11: #1 135 active; #2 90.9 inactive; #3 104 inactive
Or4a47 (olfactory receptor family 4 subfamily A member 47): #1 51.9 inactive; #2 149 active; #3 72.2 inactive
Rgcc (regulator of cell cycle): #1 126 active; #2 50.2 inactive; #3 28.6 inactive
Fam219b (family with sequence similarity 219, member B): #1 46.5 inactive; #2 70.7 inactive; #3 54.1 inactive
Sord (sorbitol dehydrogenase): #1 54 inactive; #2 35.4 inactive; #3 72.1 inactive
Ifit1bl2: #1 180 active; #2 76.5 inactive; #3 71.9 inactive
Ginm1 (glycoprotein integral membrane 1): #1 78.1 inactive; #2 86 inactive; #3 74.5 inactive
Ccdc137 (coiled-coil domain containing 137): #1 56.9 inactive; #2 116 inactive; #3 90.6 inactive
Tpm2 (tropomyosin 2, beta): #1 57.4 inactive; #2 40.8 inactive; #3 75.2 inactive
Tapbpl (TAP binding protein-like): #1 94.7 inactive; #2 75.8 inactive; #3 41.4 inactive
Ednra (endothelin receptor type A): #1 101 inactive; #2 110 inactive; #3 71.8 inactive
Stxbp3 (syntaxin binding protein 3): #1 65.6 inactive; #2 76.9 inactive; #3 52.3 inactive
Ntf5 (neurotrophin 5): #1 97.9 inactive; #2 69.3 inactive; #3 58 inactive
4833420G17Rik (RIKEN cDNA 4833420G17 gene): #1 102 inactive; #2 101 inactive; #3 87.8 inactive
Necab2 (N-terminal EF-hand calcium binding protein 2): #1 47.6 inactive; #2 60.5 inactive
Iqcj (IQ motif containing J): #1 92.8 inactive; #2 130 active; #3 107 inactive
Pcdh18 (protocadherin 18): #1 76.7 inactive; #2 48 inactive
Wasf3 (WASP family, member 3): #1 86.3 inactive; #2 65.7 inactive; #3 85.8 inactive
Taf1a: #1 96.1 inactive; #2 132 active; #3 247 active; #4 89.1 inactive; #5 104 inactive; #6 93.4 inactive
Smyd3 (SET and MYND domain containing 3): #1 90.6 inactive; #2 80.2 inactive
Or10g9b (olfactory receptor family 10 subfamily G member 9B): #1 67.7 inactive; #2 107 inactive; #3 57 inactive
Rab11fip4 (RAB11 family interacting protein 4 (class II)): #1 52.1 inactive; #2 110 inactive; #3 62.3 inactive
Map3k5 (mitogen-activated protein kinase kinase kinase 5): #1 70.7 inactive
Cacng2 (calcium channel, voltage-dependent, gamma subunit 2): #1 96.2 inactive; #2 54.3 inactive; #3 106 inactive
Cct6a (chaperonin containing TCP1 subunit 6A): #1 76.6 inactive; #2 88.7 inactive; #3 50.4 inactive
Itga8 (integrin alpha 8): #1 38.8 inactive; #2 60.9 inactive; #3 111 inactive
Or2n1d (olfactory receptor family 2 subfamily N member 1D): #1 60.9 inactive; #2 51.9 inactive; #3 85.7 inactive
Bsn (bassoon): #1 107 inactive; #2 72.7 inactive; #3 81.1 inactive
Slc17a1: #1 73.6 inactive; #2 85.4 inactive; #3 81.8 inactive

Looked up above:
For “call”, Slc16a11 #1 reads active
Rgcc (regulator of cell cycle) #2, call: inactive
Ginm1 (glycoprotein integral membrane 1) #2, call → inactive
For “GFP, % of control”, Bsn (bassoon) #3 is entered as 81.1
Entry of Ccdc137 (coiled-coil domain containing 137) #1 in “call”: inactive
